# Values from PubChem BioAssay AID1259314 (Drosophila RNAi Screening Center, 2017).
# Screen: 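Transmembrane protein genes affecting ATP after manganese overload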 (primary screen)
# System: Drosophila S2R+ cells
# Reagents: long dsRNA against Drosophila genes
# Duration: 5 days (4 days knock-down, then 1 day metal exposure)
# Conditions: manganese chloride added to 15 mM for 24 hours
# Read-out: 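Luciferase ATP signal used as a proxy for viable cell number, reported as one averaged z-score per dsRNA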
# Reading the numbers: mean ATP z-score: higher = more ATP than the plate average, more viable cells under manganese
# Hit rule: 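Called active when the mean ATP z-score is above 1.5 or below -1.5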
# Calls: active = strong ATP change, up or down; inactive = no strong ATP change
# This is an unselected part of about 3,100 deposited reagents. 289 of them (9.3%) count as active. 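Active includes both higher and lower ATP than plate average; check the z-score sign for direction.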 The record does not give: the amount of reagent.
Target gene,dsRNA,mean ATP z-score,Outcome
nompC (GeneID 33768),DRSC03581,-1.04,inactive
nompC (GeneID 33768),DRSC39807,-0.292,inactive
Tsp42Ef (GeneID 35615),DRSC06191,0.974,inactive
mthl3 (GeneID 36961),DRSC06997,0.836,inactive
mthl3 (GeneID 36961),DRSC24927,2.53,active
Gr32a (GeneID 34545),DRSC02400,-0.583,inactive
Gr32a (GeneID 34545),DRSC39450,0.452,inactive
Ranbp16 (GeneID 118436),DRSC20160,0.176,inactive
Osi22 (GeneID 41632),DRSC16442,0.287,inactive
Osi22 (GeneID 41632),DRSC27176,-0.577,inactive
CG32320 (GeneID 317977),DRSC21514,-0.407,inactive
CG32320 (GeneID 317977),DRSC28106,0.111,inactive
Vha16-1 (GeneID 44307),DRSC05020,-0.558,inactive
OtopLc (GeneID 7354434),DRSC18132,-0.256,inactive
OtopLc (GeneID 7354434),DRSC25756,-0.532,inactive
Or33c (GeneID 34603),DRSC03388,1.04,inactive
HisT (GeneID 35697),DRSC05051,0.111,inactive
HisT (GeneID 35697),DRSC06405,1.73,active
Tsp66E (GeneID 39017),DRSC09683,-1.53,active
CG15096 (GeneID 37170),DRSC06525,1.23,inactive
CG15096 (GeneID 37170),DRSC29737,0.463,inactive
Eaat1 (GeneID 34251),DRSC03321,0.716,inactive
Eaat1 (GeneID 34251),DRSC39607,-0.989,inactive
Sc2 (GeneID 38457),DRSC08162,2.31,active
Sc2 (GeneID 38457),DRSC26153,-0.575,inactive
Rh2 (GeneID 42261),DRSC16821,0.268,inactive
Rh2 (GeneID 42261),DRSC25598,1.58,active
CG7744 (GeneID 37239),DRSC07036,0.0649,inactive
CG7744 (GeneID 37239),DRSC39431,-1.22,inactive
CG12209 (GeneID 36077),DRSC06119,-0.223,inactive
Tango5 (GeneID 326232),DRSC18023,0.571,inactive
Tango5 (GeneID 326232),DRSC25500,1.65,active
hrm (GeneID 35499),DRSC04853,-1.04,inactive
Vha16-3 (GeneID 317846),DRSC10872,-0.665,inactive
Vha16-3 (GeneID 317846),DRSC25513,2.94,active
Ir85a (GeneID 41052),DRSC14382,-1.32,inactive
Ir85a (GeneID 41052),DRSC29077,-0.963,inactive
Dop1R2 (GeneID 43484),DRSC13958,-1.44,inactive
Dop1R2 (GeneID 43484),DRSC28272,1.89,active
CG14605 (GeneID 40867),DRSC12549,-0.577,inactive
CG14605 (GeneID 40867),DRSC29195,0.538,inactive
m (GeneID 44835),DRSC20181,0.267,inactive
m (GeneID 44835),DRSC29636,-0.135,inactive
CG30379 (GeneID 246578),DRSC05070,-0.0617,inactive
CG30379 (GeneID 246578),DRSC39783,-0.0115,inactive

6 entries from above, ordered by “mean ATP z-score”, low to high:
Target gene,dsRNA,mean ATP z-score,Outcome
Dop1R2 (GeneID 43484),DRSC13958,-1.44,inactive
Ir85a (GeneID 41052),DRSC14382,-1.32,inactive
Ir85a (GeneID 41052),DRSC29077,-0.963,inactive
Vha16-3 (GeneID 317846),DRSC10872,-0.665,inactive
Dop1R2 (GeneID 43484),DRSC28272,1.89,active
Vha16-3 (GeneID 317846),DRSC25513,2.94,active
